# In PubChem BioAssay (NCATS):
# The shares of active, inactive and inconclusive entries below differ from those in the screen. A potency beside an inconclusive call is a rough fit, not a confirmed value. Calls of active or inactive are those of the source. Calls come from the whole dose curve; as a rule, active = well fitted cell-killing curve with a large enough effect; inconclusive = small, poorly fitted or top-dose-only effect, or effect the other way; inactive = no such curve, though single readings can be large or run the other way.
# Experiment: Quantitative High-Throughput drug screen in 47 multiple myeloma cell lines against the NCATS MIPE library collection: KMS26_JCRB cell viability assay (AID 1918975); note: nearly all actives have a fitted effect of over 45% in size
# Details: KMS26 myeloma cells viability, CellTiter-Glo ATP, 48 h; viability (% of DMSO): at 45.8 µM (top of the series)
# Source text: PI: Beverly A. Mock Ph.D.
# Laboratory of Cancer Biology and Genetics,
# Center for Cancer Research, National Cancer Institute,
# National Institute of Health, Bethesda, Maryland
# Drug resistance and disease progression are common in multiple myeloma (MM) patients, underscoring the need for new therapeutic combinations. […] We hypothesized that effective combinations would reduce MYC expression and enhance p16 activity. […] These preclinical data identify potentially useful drug combinations for evaluation in drug-resistant MM and reveal potential mechanisms of combined drug sensitivity.
# Described herein is the primary MIPE qHTS used to cherrypick compounds. Validated compounds were then further tested for potential synergistic activiy.
# [1] Peat TJ, Gaikwad SM, Dubois W, Gyabaah-Kessie N, Zhang S, Gorjifard S, Phyo Z, Andres M, Hughitt VK, Simpson RM, Miller MA, Girvin AT, Taylor A, Williams D, D'Antonio N, Zhang Y, Rajagopalan A, Flietner E, Wilson K, Zhang X, Shinn P, Klumpp-Thomas C, McKnight C, Itkin Z, Chen L, Kazandijian D, Zhang J, Michalowski AM, Simmons JK, Keats J, Thomas CJ, Mock BA. Drug combinations identified by high-throughput screening promote cell cycle transition and upregulate Smad pathways in myeloma. Cancer Lett. 2023 Aug 1;568:216284. doi: 10.1016/j.canlet.2023.216284. Epub 2023 Jun 24. PMID: 37356470; PMCID: PMC10408729.
# SEQUENCE No. (e.g., 1, 2, 3, etc.); […] (e.g., Cells, Incubation, Reagent, etc.); VALUE and DESCRIPTION.
# 1; Cells; 5 uL; white, solid bottom 1536-well Greiner assay plate.
# 2; Compounds; 23 nL; Kalypsis pin tool (Wako USA) equipped with a 1536-well pin head to transfer to the assay plates.
# 3; Incubation; 48 hours; 37C incubation.
# 4; Reagent;5uL; CellTiter Glo (Promega).
# 5; Detector; 425V; Luminescence; Viewlux PerkinElmer.
# NOTES (numbers refer to Sequence numbers above)
# 1. The cell-based screening methods employed in this study were like those previously published. Briefly, the corresponding myeloma cell lines were screened in 1,536-well plates with 500 cells, 5-uL per well for inhibition of cell viability (assessed by measuring ATP levels with CellTiterGlo).
# 2. NCATS MIPE 4.0 library of approved and investigational drugs were added using the Kalypsis pin tool. Wells treated with DMSO only for 100% viability and media only wells for 0% viability were used as controls.
# 3. The assay plates were covered and incubated for 48 hours in a 37C, 5% CO2 incubator with controlled humidity.
# 4. After 48 hours, CellTilter-GloTM luminescent substrate mix (Promega) reagent was added to the assay plate and plates we incubated for 5 min at room temperature.
# 5. Signal was measured as median relative luminescence units on a ViewLux (PerkinElmer) multiplate reader.
# [1] Heske CM, Davis MI, Baumgart JT, Wilson K, Gormally MV, Chen L, Zhang X, Ceribelli M, Duveau DY, Guha R, Ferrer M, Arnaldez FI, Ji J, Tran HL, Zhang Y, Mendoza A, Helman LJ, Thomas CJ. Matrix Screen Identifies Synergistic Combination of PARP Inhibitors and Nicotinamide Phosphoribosyltransferase (NAMPT) Inhibitors in Ewing Sarcoma. Clin Cancer Res. 2017 Dec 1;23(23):7301-7311. doi: 10.1158/1078-0432.CCR-17-1121. Epub 2017 Sep 12. PMID: 28899971; PMCID: PMC6636827.
# Potency is the fitted concentration of half-maximal effect.
Structure (SMILES),Potency,viability (% of DMSO)
CC=C(C(=CC)c1ccc(O)cc1)c1ccc(O)cc1,"inconclusive: 6.62 µM [cytotoxic, partial curve, poor fit]",
CC(C)c1nc(CN(C)C(=O)N[C@H](C(=O)N[C@@H](Cc2ccccc2)C[C@H](O)[C@H](Cc2ccccc2)NC(=O)OCc2cncs2)C(C)C)cs1,"inconclusive: 5.26 µM [cytotoxic, partial curve, poor fit]",
Cc1csc(-c2nnc(Nc3ccc(Oc4ncccc4-c4ccnc(N)n4)cc3)c3ccccc23)c1,"inconclusive: 37.2 µM [cytotoxic, single point]",
C=CCc1cccc(C=NNC(=O)CN2CCN(Cc3ccccc3)CC2)c1O,"inconclusive: 18.7 µM [cytotoxic, partial curve]",
Fc1ccc(Cl)cc1-c1nc(Nc2ccncc2)c2nccnc2n1,"inconclusive: 16.6 µM [cytotoxic, partial curve, poor fit]",
CC(C)(N)c1ccc(-c2nc3ccccc3nc2-c2ccccc2)cc1,active: 26.4 µM,
CCOc1cc(C(=O)Nc2ccc(Cl)c(-c3nc4ccccc4[nH]3)c2)cc(OCC)c1OCC,,inactive: 116%
c1cc(N[C@@H]2CCNC2)nc(-c2cnc3ccc(-c4cn[nH]c4)cn23)c1,active: 14.8 µM,
O=C1NC(O)CCN1[C@@H]1O[C@H](CO)[C@H](O)[C@H]1O (stereo not given in full),,inactive: 122%
COc1cc2nc(N(C)CCCNC(=O)C3CCCO3)nc(N)c2cc1OC (stereo not given),"inconclusive: 0.0166 µM [rising, full curve, poor fit]",
C[C@]12CCC(=O)C=C1[C@@H]1CC1[C@H]1[C@H]3[C@@H]4C[C@H]4[C@@]4(CCC(=O)O4)[C@@]3(C)CC[C@H]12 (stereo not given in full),"inconclusive: 11.8 µM [cytotoxic, single point]",
NC(=O)c1cnccn1,"inconclusive: 0.833 µM [rising, full curve, poor fit]",
O=c1c(O)c(-c2ccc(O)cc2O)oc2cc(O)cc(O)c12,"inconclusive: 5.26 µM [cytotoxic, partial curve, poor fit]",
C[C@]12C=CC(=O)C=C1CC[C@@H]1[C@@H]2[C@@H](O)C[C@@]2(C)[C@@H]1CC[C@]2(O)C(=O)CO,"inconclusive: 0.264 µM [cytotoxic, full curve, poor fit]",
Fc1ccc(C(c2ccc(F)cc2)N2CCN(CC=Cc3ccccc3)CC2)cc1,,inconclusive: 114% [cytotoxic]
CC(C)[C@H](CO)Nc1nc(Nc2cccc(Cl)c2)c2ncn(C(C)C)c2n1,active: 23.5 µM,
Cn1cnc(-c2cc3nccc(Oc4ccc(NC(=S)NC(=O)Cc5ccccc5)cc4F)c3s2)c1,"inconclusive: 26.4 µM [cytotoxic, single point]",
COc1cc2c(N3CCN(C(=O)Nc4ccc(OC(C)C)cc4)CC3)ncnc2cc1OCCCN1CCCCC1,"inconclusive: 37.2 µM [cytotoxic, single point]",
CCCCCN(C)CCC(O)(P(=O)(O)O)P(=O)(O)O,,inactive: 130%
O=c1ncn2nc(Sc3ccc(F)cc3F)ccc2c1-c1c(Cl)cccc1Cl,"inconclusive: 23.5 µM [cytotoxic, partial curve, poor fit]",

Structure (SMILES),Potency,viability (% of DMSO)
OC[C@@H](O)[C@@H](O)[C@H](O)[C@@H](O)CO,,inactive: 128%
CC(C)(F)C[C@H](N[C@@H](c1ccc(-c2ccc(S(C)(=O)=O)cc2)cc1)C(F)(F)F)C(=O)NC1(C#N)CC1,"inconclusive: 11.8 µM [cytotoxic, partial curve, poor fit]",
CCOC(=O)C1=C(C)NC(=S)NC1c1cccc(O)c1 (stereo not given),"inconclusive: 0.0372 µM [cytotoxic, full curve, poor fit]",
CN[C@@H]1CN(c2ccc3c(=O)c(C(=O)O)cn(-c4nccs4)c3n2)C[C@@H]1OC,active: 18.2 µM,
COc1ccc2c(c1)c(C1=C(c3c[nH]c4ccccc34)C(=O)NC1=O)cn2CCCN(C)C,"inconclusive: 37.2 µM [cytotoxic, single point]",
COc1ccc2nc(S(=O)Cc3ncc(C)c(OC)c3C)[nH]c2c1 (stereo not given),,inactive: 172%
Cc1cc2c(F)c(Oc3ncnn4cc(OC[C@@H](C)O)c(C)c34)ccc2[nH]1,"inconclusive: 5.9 µM [cytotoxic, partial curve, poor fit]",
COc1ccc(-c2cc3nccn3c(Nc3ncccc3C(N)=O)n2)cc1OC,active: 10.5 µM,
CC(C)OC(=O)OCOP(=O)(CO[C@H](C)Cn1cnc2c(N)ncnc21)OCOC(=O)OC(C)C,"inconclusive: 20.9 µM [cytotoxic, partial curve, poor fit]",
CCCc1nc(C(C)(C)O)c(C(=O)O)n1Cc1ccc(-c2ccccc2-c2nn[nH]n2)cc1,"inconclusive: 26.4 µM [rising, single point]",
CC(C)(C)c1cc(C(C)(C)C)c(NC(=O)c2c[nH]c3ccccc3c2=O)cc1O,"inconclusive: 0.166 µM [cytotoxic, full curve, poor fit]",
CCC[C@H]1C[C@H](C(=O)N[C@@H]([C@@H]2O[C@@H](SC)[C@@H](O)[C@@H](O)[C@@H]2O)[C@H](C)Cl)N(C)C1,"inconclusive: 6.62 µM [rising, partial curve]",
CCc1ccc(CCOc2ccc(CC3SC(=O)NC3=O)cc2)nc1 (stereo not given),,inactive: 107%
N#CC[C@H](C1CCCC1)n1cc(-c2ncnc3[nH]ccc23)cn1,"inconclusive: 26.4 µM [cytotoxic, single point]",
Cc1cccc(Nc2nc(N[C@@H]3CCCC[C@H]3N)ncc2C(N)=O)c1,active: 20.9 µM,
CCOC(=O)C(C)Oc1cccc2c(=O)n(CC(=O)Nc3ccc4c(c3)OCCO4)ccc12 (stereo not given),"inconclusive: 0.0047 µM [cytotoxic, full curve, poor fit]",
COC(=O)[C@H](CCCN=C(N)N)NS(=O)(=O)c1ccc(C)cc1,,inactive: 150%
COc1cc2ncnc(Nc3cc(Br)c(O)c(Br)c3)c2cc1OC,,inactive: 108%
CC(=O)O[C@H]1C(=O)[C@@]2(C)C([C@H](OC(=O)c3ccccc3)[C@]3(O)C[C@H](OC(=O)[C@H](O)[C@@H](NC(=O)c4ccccc4)c4ccccc4)C(C)=C1C3(C)C)[C@]1(OC(C)=O)CO[C@@H]1C[C@@H]2O (stereo not given in full),,inactive: 113%
CC(C)NC[C@@H](C(=O)N1CCN(c2ncnc3c2[C@H](C)C[C@H]3O)CC1)c1ccc(Cl)cc1,active: 1.32 µM,

# Whole records, looked up by structure:
# CN[C@@H]1CN(c2ccc3c(=O)c(C(=O)O)cn(-c4nccs4)c3n2)C[C@@H]1OC is listed with Potency: active: 18.2 µM
# COC(=O)[C@H](CCCN=C(N)N)NS(=O)(=O)c1ccc(C)cc1 is listed with viability (% of DMSO): inactive: 150%
# CC(=O)O[C@H]1C(=O)[C@@]2(C)C([C@H](OC(=O)c3ccccc3)[C@]3(O)C[C@H](OC(=O)[C@H](O)[C@@H](NC(=O)c4ccccc4)c4ccccc4)C(C)=C1C3(C)C)[C@]1(OC(C)=O)CO[C@@H]1C[C@@H]2O (stereo not given in full) is listed with viability (% of DMSO): inactive: 113%
